This passage reports binding results from publication doi:10.1101/844365.

These are yes or no findings as the source states them, for the method shown. Binding can be weak; no strength is given. Sequences can lack the tags named with a protein.

This experiment has as its target C-terminal part of AtTPL, GAL4 binding domain fusion (Arabidopsis thaliana). Briefly: two-hybrid.

B1: ERF11, GAL4 activation domain fusion (protein, UniProt Q9C5I3 1-166)
chain: MAPTVKTAAVKTNEGNGVRYRGVRKRPWGRYAAEIRDPFKKSRVWLGTFDTPEEAARAYDKRAIEFRGAKAKTNFPCYNINAHCLSLTQSLSQSSTVESSFPNLNLGSDSVSSRFPFPKIQVKAGMMVFDERSESDSSSVVMDVVRYEGRRVVLDLDLNFPPPPEN
In the case of B1, the binding result is on record as “binds”.
